Laboratory results taken from the supplement of paper PMC4604168 (melanoma cell lines).
The other results are listed elsewhere or left out. Repeats are few or missing, and single values can be far off.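 Imaging used 1,536-well plates; nuclei positive for cleaved PARP by antibody were divided by total DNA-stained nuclei to yield the apoptosis fraction. Doses for screening kept most cells viable, and cell lines differ markedly in resting and induced cleaved-PARP levels.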

System: CBRC014 (line from a melanoma biopsy)
Experiment: cleaved PARP positive nuclei fraction relative to DMSO control; melanoma cells; higher = more apoptosis
Settings: library dose: low library concentration; 72 h

SMILES	cleaved PARP positive nuclei fraction
COc1ccc2c(c1)CCC1C2CCC2(C)C(NCCCCCCN3C(=O)C=CC3=O)CCC12 (centres undefined) + COc1ccc(-c2ccc3c(N4CCOCC4)nc(N4C[C@@H](C)O[C@@H](C)C4)nc3n2)cc1CO [KU0063794] (first compound 0.4 µM, partner dose 0.02 µM)	108%
COc1cc2c(Oc3ccc4[nH]c(C)cc4c3F)ncnc2cc1OCCCN1CCCC1 [cediranib] + Oc1nc(-c2ccc(C(F)(F)F)cc2)nc2c1CSCC2 [XAV939] (first compound 0.4 µM, partner dose 2 µM)	63.1%
COc1ccc(-c2ccc3c(N4CCOCC4)nc(N4C[C@@H](C)O[C@@H](C)C4)nc3n2)cc1CO + COc1ccc(COc2ccc(Cc3cnc(N)nc3N)cc2OC)cc1 [GW2580] (first compound 0.02 µM, partner dose 1 µM)	180%
O=C(Nc1ccccc1)c1cc([N+](=O)[O-])ccc1Cl + c1cc(-c2cnn3cc(-c4ccc(OCCN5CCCCC5)cc4)cnc23)ccn1 [Dorsomorphin] (first compound 2 µM, partner dose 0.4 µM)	115%
NCC(=O)Nc1ccc(-n2nc(C(F)(F)F)cc2-c2ccc3c(ccc4ccccc43)c2)cc1 + O=c1cc(-c2cccc3c2Sc2ccccc2S3)oc(N2CCOCC2)c1 [KU55933] (first compound 1 µM, partner dose 1 µM)	106%
COC(=O)c1sccc1S(=O)(=O)Nc1ccc(Nc2ccccc2)cc1OC + COc1ccc(COc2ccc(Cc3cnc(N)nc3N)cc2OC)cc1 [GW2580] (first compound 1 µM, partner dose 1 µM)	95.6%
NCC(=O)Nc1ccc(-n2nc(C(F)(F)F)cc2-c2ccc3c(ccc4ccccc43)c2)cc1 + Oc1nc(-c2ccc(C(F)(F)F)cc2)nc2c1CSCC2 [XAV939] (first compound 1 µM, partner dose 2 µM)	95.2%
NCC(=O)Nc1ccc(-n2nc(C(F)(F)F)cc2-c2ccc3c(ccc4ccccc43)c2)cc1 + N#Cc1c(O)c2c(-c3ccc(-c4ccccc4O)cc3)csc2[nH]c1=O [A769662] (first compound 1 µM, partner dose 2 µM)	98.3%
CCc1ccc(CCOc2ccc(CC3SC(=O)NC3=O)cc2)nc1 (centres undefined) [pioglitazone] + COc1ccc2c(c1)CCC1C2CCC2(C)C(NCCCCCCN3C(=O)C=CC3=O)CCC12 [U73122] (first compound 2 µM, partner dose 0.4 µM)	102%
COc1cc(N2CCC(N3CCN(C)CC3)CC2)ccc1Nc1ncc(Cl)c(Nc2ccccc2S(=O)(=O)C(C)C)n1 + CCCCCCCCCCCC1=C(O)C(=O)C=C(O)C1=O [Embelin] (first compound 0.08 µM, partner dose 1.2 µM)	92.2%
N#Cc1c(O)c2c(-c3ccc(-c4ccccc4O)cc3)csc2[nH]c1=O + COc1ccc(-c2ccc3c(N4CCOCC4)nc(N4C[C@@H](C)O[C@@H](C)C4)nc3n2)cc1CO [KU0063794] (first compound 2 µM, partner dose 0.02 µM)	188%
NCC(=O)Nc1ccc(-n2nc(C(F)(F)F)cc2-c2ccc3c(ccc4ccccc43)c2)cc1 + O=S(=O)(c1ccccc1)N(CC(F)(F)F)c1ccc(C(O)(C(F)(F)F)C(F)(F)F)cc1 [T0901317] (first compound 1 µM, partner dose 1.4 µM)	101%
O=C1NC(=O)/C(=C/c2ccc(-c3ccc(F)cc3O)o2)S1 + CC(C)CCN1c2nc(Nc3cc(F)c(O)c(F)c3)ncc2N(C)C(=O)C1C [BID1870] (first compound 1 µM, partner dose 0.2 µM)	86.5%
NCC(=O)Nc1ccc(-n2nc(C(F)(F)F)cc2-c2ccc3c(ccc4ccccc43)c2)cc1 + O=C(Nc1ccccc1)c1cc([N+](=O)[O-])ccc1Cl [GW9662] (first compound 1 µM, partner dose 2 µM)	94.6%
O=S(=O)(c1ccccc1)N(CC(F)(F)F)c1ccc(C(O)(C(F)(F)F)C(F)(F)F)cc1 + c1cc(-c2cnn3cc(-c4ccc(OCCN5CCCCC5)cc4)cnc23)ccn1 [Dorsomorphin] (first compound 1.4 µM, partner dose 0.4 µM)	123%
COc1ccc(COc2ccc(Cc3cnc(N)nc3N)cc2OC)cc1 + Cn1cc(/C=C2\C(=O)Nc3cccnc32)c2ccccc21 [GW441756] (first compound 1 µM, partner dose 0.4 µM)	106%
Oc1cc(-c2nc(-c3ccccc3)[nH]c2-c2ccncc2)ccc1Cl + c1cc(-c2cnn3cc(-c4ccc(OCCN5CCCCC5)cc4)cnc23)ccn1 [Dorsomorphin] (first compound 0.2 µM, partner dose 0.4 µM)	82.8%
COc1ccc2c(c1)CCC1C2CCC2(C)C(NCCCCCCN3C(=O)C=CC3=O)CCC12 (centres undefined) + CC(C)CCN1c2nc(Nc3cc(F)c(O)c(F)c3)ncc2N(C)C(=O)C1C [BID1870] (first compound 0.4 µM, partner dose 0.2 µM)	113%
O=C1NC(=O)/C(=C/c2ccc(-c3ccc(F)cc3O)o2)S1 + c1cc(-c2cnn3cc(-c4ccc(OCCN5CCCCC5)cc4)cnc23)ccn1 [Dorsomorphin] (first compound 1 µM, partner dose 0.4 µM)	103%
O=C(O)C(=O)Nc1sc2c(c1C(=O)O)CCNC2 + Oc1nc(-c2ccc(C(F)(F)F)cc2)nc2c1CSCC2 [XAV939] (first compound 1.66667 µM, partner dose 2 µM)	76.4%
Oc1cc(-c2nc(-c3ccccc3)[nH]c2-c2ccncc2)ccc1Cl + Cc1cc([N+](=O)[O-])ccc1NS(=O)(=O)c1cc(Cl)ccc1Cl [FH535] (first compound 0.2 µM, partner dose 1 µM)	136%
CN(C)S(=O)(=O)c1ccc2c(c1)/C(=C/c1cc3c([nH]1)CCCC3)C(=O)N2 + O=S(=O)(c1ccccc1)N(CC(F)(F)F)c1ccc(C(O)(C(F)(F)F)C(F)(F)F)cc1 [T0901317] (first compound 0.4 µM, partner dose 1.4 µM)	106%
N#Cc1c(O)c2c(-c3ccc(-c4ccccc4O)cc3)csc2[nH]c1=O + O=C(O)C(=O)Nc1sc2c(c1C(=O)O)CCNC2 [TCS401] (first compound 2 µM, partner dose 1.66667 µM)	78.5%
O=C1NC(=O)/C(=C/c2ccc(-c3ccc(F)cc3O)o2)S1 + Oc1nc(-c2ccc(C(F)(F)F)cc2)nc2c1CSCC2 [XAV939] (first compound 1 µM, partner dose 2 µM)	88.3%

Reformatted: results already given
SMILES,cleaved PARP positive nuclei fraction
"CCc1ccc(CCOc2ccc(CC3SC(=O)NC3=O)cc2)nc1 (centres undefined) [pioglitazone] + COc1ccc2c(c1)CCC1C2CCC2(C)C(NCCCCCCN3C(=O)C=CC3=O)CCC12 [U73122] (first compound 2 µM, partner dose 0.4 µM)",102%
"COc1cc(N2CCC(N3CCN(C)CC3)CC2)ccc1Nc1ncc(Cl)c(Nc2ccccc2S(=O)(=O)C(C)C)n1 + CCCCCCCCCCCC1=C(O)C(=O)C=C(O)C1=O [Embelin] (first compound 0.08 µM, partner dose 1.2 µM)",92.2%
